The list shows only some results of the screen, not a fair sample: it gathers tests that were run many times, whatever their T/C, doses with no T/C, and many T/C values between a quarter and a half above the control. Other doses and runs of a compound stand elsewhere. T/C is the treated group as % of the vehicle group. Some doses have a count of surviving animals in place of a T/C: the source holds a T/C of zero for them, seemingly a mark for toxic or unscored doses. Some survivor counts are full or nearly so, which does not show that the dose was tolerated: survival well below the control is almost never listed, so the zero probably covers shortened survival too. Counts of survivors are from the toxicity check (mostly the fifth day) where no day follows; animals may have died later. Schedules are NCI's codes, taken here to give the interval after Q, in days (D) or hours (H), and the number of doses after X. Some entries were tested several times; the values are given in rising order. Some schedules carry Z or #; the key to these is not given. Some structures stand for samples that the source files as different forms (salt, stereo form or complex); doses refer to the form tested. Where survival is the endpoint, the PubChem record calls one and a half times the control and up active, and a quarter to a half above the control has no call in these data; cut-offs in other NCI protocols can differ.

The assay concerns L1210 leukemia ip in BDF1 mice, survival T/C. Put plainly: NCI In Vivo Anticancer Drug Screen. Data for tumor model L1210 Leukemia (intraperitoneal) in B6D2F1 (BDF1) mice. The settings on record: T/C endpoint: mean survival time, higher T/C = longer survival.
The mark [1] stands for this setting: dose: 300.0 mg/kg/injection, schedule: Q01DX001 (ip), vehicle: saline.
[2] abbreviates: dose: 400.0 mg/kg/injection, schedule: Q04DX003 (ip), vehicle: Klucel (hydroxypropylcellulose) (HPC).
Where [3] appears, read: dose: 200.0 mg/kg/injection, schedule: Q04DX003 (ip), vehicle: saline with Tween-80.
Setting [4] is: dose: 400.0 mg/kg/injection, schedule: Q04DX003 (ip), vehicle: saline with Tween-80.
Setting [5] is: dose: 400.0 mg/kg/injection, schedule: Q01DX009 (ip), vehicle: Klucel (hydroxypropylcellulose) (HPC).
[6] abbreviates: dose: 200.0 mg/kg/injection, schedule: Q04DX002 (ip), vehicle: Klucel (hydroxypropylcellulose) (HPC).
Where [7] appears, read: dose: 400.0 mg/kg/injection, schedule: Q04DX002 (ip), vehicle: Klucel (hydroxypropylcellulose) (HPC).
Where [8] appears, read: dose: 400.0 mg/kg/injection, schedule: Q01DX001 (ip), vehicle: saline.
[9] abbreviates: dose: 400.0 mg/kg/injection, schedule: Q04DX003 (ip), vehicle: saline.
Where [10] appears, read: dose: 200.0 mg/kg/injection, schedule: Q01DX009 (ip), vehicle: Klucel (hydroxypropylcellulose) (HPC).
The mark [11] stands for this setting: dose: 200.0 mg/kg/injection, schedule: Q04DX003 (ip), vehicle: saline.

With `CCOc1ccc(NC(=O)C(C(C)N2CCCCC2)N2CCCCC2)cc1` (centres undefined), the survivor count is given as 1 of 6 (dose: 75.0 mg/kg/injection, schedule: Q01DX009 (ip), vehicle: saline); 1 of 6 (dose: 115.0 mg/kg/injection, schedule: Q01DX009 (ip), vehicle: saline); 0 of 6 (dose: 170.0 mg/kg/injection, schedule: Q01DX009 (ip), vehicle: saline).

Consider `COc1ccc(C=NC(C)(C)CO)c(OC)c1`, for which the survivor count under setting [1] is 3 of 6.

Regarding `CC(=O)Oc1c(C)cc([N+](=O)[O-])cc1[N+](=O)[O-]`, the survivor count runs as follows: (dose: 100.0 mg/kg/injection, schedule: Q04DX003 (ip), vehicle: Klucel (hydroxypropylcellulose) (HPC)) 1 of 6 and 6 of 6; (dose: 200.0 mg/kg/injection, schedule: Q04DX003 (ip), vehicle: Klucel (hydroxypropylcellulose) (HPC)) 0 of 6; under setting [2], 0 of 6.

`C[Si](C)(C)C1C2c3ccccc3C1C1(C#N)C(=O)C(Cl)=C(Cl)C(=O)C21C#N` (centres undefined): the survivor count reads like this: under setting [3], 0 of 6; under setting [4], 0 of 6.

For the molecule `Cc1ccc(Cl)cc1NC(=O)Nc1ccccc1Cl`, the survivor count under setting [5] is listed as 2 of 6.

For `NC(N)=NC(N)=Nc1cc(C(F)(F)F)ccc1Cl`, the survivor count runs as follows: (dose: 100.0 mg/kg/injection, schedule: Q04DX002 (ip), vehicle: Klucel (hydroxypropylcellulose) (HPC)) 0 of 3; under setting [6], 0 of 3; under setting [7], 0 of 3.

For `COC(=O)N1C2C3C(C)=C(C)C2(C)C3(C)S1(=O)=O` (centres undefined), the survivor count under setting [2] is 5 of 6.

Turning to `CCOP(=S)(NN=C1CCCC1)OCC`, the survivor count under setting [8] is listed as 2 of 4.

With `Cc1cc(NCCN(C(C)C)C(C)C)nc(/N=C(\N)Nc2ccc(Cl)c(Cl)c2)n1`, the survivor count (dose: 37.5 mg/kg/injection, schedule: Q01DX001 (ip), vehicle: Klucel (hydroxypropylcellulose) (HPC)) is given as 3 of 6; the survivor count (dose: 75.0 mg/kg/injection, schedule: Q01DX001 (ip), vehicle: Klucel (hydroxypropylcellulose) (HPC)) was 0 of 6; the survivor count (dose: 150.0 mg/kg/injection, schedule: Q01DX001 (ip), vehicle: Klucel (hydroxypropylcellulose) (HPC)) is reported as 0 of 6; the survivor count (dose: 300.0 mg/kg/injection, schedule: Q01DX001 (ip), vehicle: other) is reported as 0 of 6.

As to `CNc1nc(Cl)nc(Cl)n1`, under setting [9], the survivor count is 1 of 6.

Consider `Clc1ccc(C2=Nc3cccc4cccc(c34)N2)cc1Cl`, for which the survivor count (dose: 120.0 mg/kg/injection, schedule: Q01DX Z (ip), vehicle: saline) was 6 of 6.

With `CN(C)Cc1cc(Cl)cc(CN(C)C)c1O`, the survivor count is on record as 0 of 3 (dose: 200.0 mg/kg/injection, schedule: Q04DX002 (ip), vehicle: saline with Tween-80); 0 of 3 (dose: 400.0 mg/kg/injection, schedule: Q04DX002 (ip), vehicle: saline with Tween-80); 0 of 6 under setting [9].

For the molecule `CC(=O)Nc1ccc(NC(=O)Nc2cccc(C(F)(F)F)c2)cc1`, under setting [5], the survivor count is 6 of 6.

As to `CCOC(=O)C(C(=O)OCC)N(CC)CC`, the survivor count under setting [10] is listed as 5 of 6.

Regarding `CC(=O)N1CCn2nccc21`, the T/C (dose: 400.0 mg/kg/injection, schedule: Q01DX009 (ip), vehicle: water) is 134 and 136 % of control.

For `CN1C(=O)C(Br)C(Br)c2ccccc21` (centres undefined), where the note is “dose: 400.0 mg/kg/injection, schedule: Q01DX001 (ip), vehicle: other”, the survivor count is 1 of 4.

For the molecule `CC(C)c1cc(O)ccc1N(C)C` (tested in a mixture with another compound), the survivor count (dose: 100.0 mg/kg/injection, schedule: Q01DX001 (ip), vehicle: saline) is on record as 0 of 6; the survivor count (dose: 200.0 mg/kg/injection, schedule: Q01DX001 (ip), vehicle: saline) is given as 0 of 6; the survivor count under setting [8] is reported as 0 of 6; the survivor count (dose: 6.3 micrograms/kg/injection, schedule: Q01DX009 (ip), vehicle: saline) is listed as 3 of 6; the survivor count (dose: 12.5 micrograms/kg/injection, schedule: Q01DX009 (ip), vehicle: saline) was 2 of 6.

On to `OC(CC(O)(C(F)(F)F)C(F)(F)F)CC(O)(C(F)(F)F)C(F)(F)F`, for which the survivor count (dose: 50.0 mg/kg/injection, schedule: Q01DX009 (ip), vehicle: saline with Tween-80) is recorded as 6 of 6; the survivor count (dose: 100.0 mg/kg/injection, schedule: Q01DX009 (ip), vehicle: saline with Tween-80) is 2 of 6; the survivor count under setting [3] is 3 of 6; the survivor count under setting [4] was 5 of 6.

As to `COc1ccc(OC)c(NC(=O)CCl)c1`, the survivor count reads like this: under setting [10], 3 of 6; under setting [6], 1 of 3; under setting [5], 0 of 6; under setting [7], 0 of 3.

Consider `CN1C2CCC1C(O)C(c1ccccc1)C2` (centres undefined), for which the survivor count is listed as 1 of 6 (dose: 75.0 mg/kg/injection, schedule: Q01DX001 (ip), vehicle: acetone); 0 of 6 (dose: 150.0 mg/kg/injection, schedule: Q01DX001 (ip), vehicle: acetone); 0 of 6 (dose: 300.0 mg/kg/injection, schedule: Q01DX001 (ip), vehicle: acetone).

For `FC(F)(F)c1ccc2c(c1)N(CCCN1CCN(CCC3OCCCO3)CC1)c1ccccc1S2`, the survivor count is, setting by setting: (dose: 25.0 mg/kg/injection, schedule: Q01DX009 (ip), vehicle: saline) 4 of 6; (dose: 25.0 mg/kg/injection, schedule: Q04DX003 (ip), vehicle: saline) 2 of 4; (dose: 50.0 mg/kg/injection, schedule: Q01DX009 (ip), vehicle: saline) 1 of 6; (dose: 50.0 mg/kg/injection, schedule: Q04DX003 (ip), vehicle: saline) 0 of 4; (dose: 100.0 mg/kg/injection, schedule: Q01DX009 (ip), vehicle: saline) 0 of 6; (dose: 100.0 mg/kg/injection, schedule: Q04DX003 (ip), vehicle: saline) 0 of 4. Also, the survivor count is on record as 0 of 6 (dose: 200.0 mg/kg/injection, schedule: Q01DX009 (ip), vehicle: saline); 0 of 4 under setting [11]; 0 of 6 (dose: 400.0 mg/kg/injection, schedule: Q01DX009 (ip), vehicle: saline); 0 of 4 under setting [9].

On to `C=CCc1cc(CN2CCOCC2)c(O)c(OC)c1`, for which the survivor count is on record as 3 of 3 (dose: 50.0 mg/kg/injection, schedule: Q04DX002 (ip), vehicle: Klucel (hydroxypropylcellulose) (HPC)) and 3 of 3 under setting [6].

Take `O=C(CCCl)[O][Pb]([O]C(=O)CCCl)([c]1ccccc1)[c]1ccccc1`: the survivor count under setting [11] is on record as 6 of 6 and the survivor count under setting [9] is given as 6 of 6.

Regarding `CC(=O)C1CCC2C3CC=C4CC(O)CCC4(C)C3CCC12C` (centres undefined), the survivor count under setting [2] is given as 5 of 6.

Consider `Cc1c[n+](Cc2ccccc2)cc(C)n1`, for which the survivor count under setting [1] is given as 0 of 6.

Consider `Brc1sccc1-c1cccc2ccccc12`, for which the survivor count under setting [3] was 2 of 3.

For `Nc1nnc(N)c2nc(-c3ccccc3)c(-c3ccccc3)nc12`, the survivor count under setting [5] was 2 of 6.

For `CCCCN(c1ccccc1)c1ncnc2c1cnn2C`, under “dose: 400.0 mg/kg/injection, schedule: Q01DX009 (ip), vehicle: saline with Tween-80”, the survivor count is recorded as 1 of 6.

Turning to `O=C(OCCOCCOCCOCCOCCOCCOCCOCCOCCOCCOCCOCCOCCOCCOCCOCCOCCOCCOCCOCCOCCOCCOC(=O)N1CC1)N1CC1`, the survivor count (dose: 400.0 mg/kg/injection, schedule: Q01DX009 (ip), vehicle: acetone) is 3 of 6.

Source of the values: PubChem BioAssay AID248 (DTP/NCI, 2004).
